# According to the supplement of paper PMC10849652:
# The chains behind the UniProt entries cited, without tags or fusion partners. Where a name states a change or a piece, a line headed by the entry shows the natural chain unless it says otherwise.
# UniProt P61960, whole entry, looked up: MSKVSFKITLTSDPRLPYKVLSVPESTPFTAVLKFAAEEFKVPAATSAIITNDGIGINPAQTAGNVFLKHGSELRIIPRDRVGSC
# UniProt Q9C0B0: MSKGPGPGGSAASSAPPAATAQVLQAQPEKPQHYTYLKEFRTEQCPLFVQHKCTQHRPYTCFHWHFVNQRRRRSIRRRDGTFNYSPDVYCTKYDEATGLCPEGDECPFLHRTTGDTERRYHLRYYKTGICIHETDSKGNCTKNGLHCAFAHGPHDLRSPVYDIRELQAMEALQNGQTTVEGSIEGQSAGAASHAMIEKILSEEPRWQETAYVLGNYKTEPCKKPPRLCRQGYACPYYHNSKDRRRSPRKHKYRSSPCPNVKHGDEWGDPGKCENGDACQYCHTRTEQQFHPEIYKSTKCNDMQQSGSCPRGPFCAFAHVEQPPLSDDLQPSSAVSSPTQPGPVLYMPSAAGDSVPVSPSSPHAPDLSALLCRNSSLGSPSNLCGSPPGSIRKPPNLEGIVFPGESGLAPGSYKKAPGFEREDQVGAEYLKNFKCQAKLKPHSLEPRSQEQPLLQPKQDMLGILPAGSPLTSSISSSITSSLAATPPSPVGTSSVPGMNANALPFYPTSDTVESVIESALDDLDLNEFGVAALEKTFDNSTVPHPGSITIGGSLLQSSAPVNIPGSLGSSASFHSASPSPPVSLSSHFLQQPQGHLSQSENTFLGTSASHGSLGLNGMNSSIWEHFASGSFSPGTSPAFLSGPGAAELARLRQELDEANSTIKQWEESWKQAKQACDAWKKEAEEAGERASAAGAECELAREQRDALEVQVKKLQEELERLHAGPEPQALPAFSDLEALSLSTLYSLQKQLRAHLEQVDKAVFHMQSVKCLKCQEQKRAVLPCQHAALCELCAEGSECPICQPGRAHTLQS
# UniProt Q8IWV8: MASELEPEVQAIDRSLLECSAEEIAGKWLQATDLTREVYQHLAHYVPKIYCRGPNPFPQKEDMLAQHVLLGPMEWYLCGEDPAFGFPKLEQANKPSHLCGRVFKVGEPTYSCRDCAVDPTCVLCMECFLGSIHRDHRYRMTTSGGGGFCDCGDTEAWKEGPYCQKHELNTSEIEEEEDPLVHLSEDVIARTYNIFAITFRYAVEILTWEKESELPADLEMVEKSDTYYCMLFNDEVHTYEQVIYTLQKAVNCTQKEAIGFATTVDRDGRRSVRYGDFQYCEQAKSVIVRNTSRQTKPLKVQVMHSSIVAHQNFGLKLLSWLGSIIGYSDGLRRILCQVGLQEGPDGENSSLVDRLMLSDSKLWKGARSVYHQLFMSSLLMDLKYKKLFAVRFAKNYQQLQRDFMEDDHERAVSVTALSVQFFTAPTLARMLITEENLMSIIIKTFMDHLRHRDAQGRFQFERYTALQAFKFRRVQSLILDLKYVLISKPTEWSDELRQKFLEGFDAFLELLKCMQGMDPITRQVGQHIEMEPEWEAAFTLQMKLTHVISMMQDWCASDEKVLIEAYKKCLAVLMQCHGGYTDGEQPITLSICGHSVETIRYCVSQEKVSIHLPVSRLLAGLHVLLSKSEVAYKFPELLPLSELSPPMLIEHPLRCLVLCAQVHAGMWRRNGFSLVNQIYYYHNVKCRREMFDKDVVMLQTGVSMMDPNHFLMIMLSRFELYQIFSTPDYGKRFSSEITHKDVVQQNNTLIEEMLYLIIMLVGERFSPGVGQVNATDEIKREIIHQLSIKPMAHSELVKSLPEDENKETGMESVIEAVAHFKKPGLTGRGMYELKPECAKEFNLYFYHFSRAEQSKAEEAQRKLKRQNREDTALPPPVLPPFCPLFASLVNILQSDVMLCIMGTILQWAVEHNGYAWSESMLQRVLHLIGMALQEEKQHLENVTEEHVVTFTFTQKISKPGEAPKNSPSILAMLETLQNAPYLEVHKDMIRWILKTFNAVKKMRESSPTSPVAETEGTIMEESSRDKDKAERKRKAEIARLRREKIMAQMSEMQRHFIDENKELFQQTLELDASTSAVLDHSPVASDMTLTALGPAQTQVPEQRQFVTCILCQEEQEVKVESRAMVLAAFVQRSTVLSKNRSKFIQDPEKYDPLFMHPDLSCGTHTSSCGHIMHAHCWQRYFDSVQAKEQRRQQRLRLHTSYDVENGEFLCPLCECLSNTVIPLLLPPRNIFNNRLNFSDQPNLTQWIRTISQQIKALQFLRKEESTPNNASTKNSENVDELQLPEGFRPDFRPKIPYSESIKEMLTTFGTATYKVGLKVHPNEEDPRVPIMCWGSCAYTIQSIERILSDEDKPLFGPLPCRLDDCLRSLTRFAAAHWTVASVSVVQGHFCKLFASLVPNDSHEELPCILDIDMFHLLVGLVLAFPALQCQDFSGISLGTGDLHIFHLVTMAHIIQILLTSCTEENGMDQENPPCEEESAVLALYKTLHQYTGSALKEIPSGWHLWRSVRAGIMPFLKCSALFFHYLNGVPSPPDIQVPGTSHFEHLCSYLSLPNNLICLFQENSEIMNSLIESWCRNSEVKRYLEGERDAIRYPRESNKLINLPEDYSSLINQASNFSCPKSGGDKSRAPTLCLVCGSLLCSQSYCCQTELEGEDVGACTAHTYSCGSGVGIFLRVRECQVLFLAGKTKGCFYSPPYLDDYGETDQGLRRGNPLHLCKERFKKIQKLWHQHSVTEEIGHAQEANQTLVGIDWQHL
# UniProt Q14139: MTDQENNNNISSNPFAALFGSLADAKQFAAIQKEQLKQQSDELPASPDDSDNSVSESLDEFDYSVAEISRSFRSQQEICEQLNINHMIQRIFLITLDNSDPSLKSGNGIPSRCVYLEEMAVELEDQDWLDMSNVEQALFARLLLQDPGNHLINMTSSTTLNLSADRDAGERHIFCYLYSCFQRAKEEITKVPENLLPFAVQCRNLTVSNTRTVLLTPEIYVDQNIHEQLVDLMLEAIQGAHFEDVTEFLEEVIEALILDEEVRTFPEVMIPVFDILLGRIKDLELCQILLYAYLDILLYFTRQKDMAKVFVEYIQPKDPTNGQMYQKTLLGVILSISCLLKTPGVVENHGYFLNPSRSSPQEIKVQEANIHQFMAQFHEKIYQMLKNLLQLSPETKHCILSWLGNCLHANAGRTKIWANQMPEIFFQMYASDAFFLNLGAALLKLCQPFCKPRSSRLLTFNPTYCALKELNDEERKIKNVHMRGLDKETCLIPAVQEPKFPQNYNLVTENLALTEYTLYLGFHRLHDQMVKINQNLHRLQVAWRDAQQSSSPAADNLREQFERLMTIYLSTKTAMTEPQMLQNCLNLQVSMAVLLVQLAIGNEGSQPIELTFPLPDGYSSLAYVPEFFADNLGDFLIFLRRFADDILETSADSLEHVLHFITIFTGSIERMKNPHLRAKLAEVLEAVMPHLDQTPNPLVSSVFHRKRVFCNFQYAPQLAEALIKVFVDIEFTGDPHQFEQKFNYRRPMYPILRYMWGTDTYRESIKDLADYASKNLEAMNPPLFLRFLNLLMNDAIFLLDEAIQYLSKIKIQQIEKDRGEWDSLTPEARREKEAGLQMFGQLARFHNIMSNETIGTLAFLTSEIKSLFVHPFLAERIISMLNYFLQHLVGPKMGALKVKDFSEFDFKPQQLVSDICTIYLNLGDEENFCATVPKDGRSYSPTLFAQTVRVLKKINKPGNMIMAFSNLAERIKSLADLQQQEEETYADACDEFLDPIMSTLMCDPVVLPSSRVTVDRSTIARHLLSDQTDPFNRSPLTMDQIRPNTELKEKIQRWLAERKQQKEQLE
# UniProt O95155, whole entry, looked up: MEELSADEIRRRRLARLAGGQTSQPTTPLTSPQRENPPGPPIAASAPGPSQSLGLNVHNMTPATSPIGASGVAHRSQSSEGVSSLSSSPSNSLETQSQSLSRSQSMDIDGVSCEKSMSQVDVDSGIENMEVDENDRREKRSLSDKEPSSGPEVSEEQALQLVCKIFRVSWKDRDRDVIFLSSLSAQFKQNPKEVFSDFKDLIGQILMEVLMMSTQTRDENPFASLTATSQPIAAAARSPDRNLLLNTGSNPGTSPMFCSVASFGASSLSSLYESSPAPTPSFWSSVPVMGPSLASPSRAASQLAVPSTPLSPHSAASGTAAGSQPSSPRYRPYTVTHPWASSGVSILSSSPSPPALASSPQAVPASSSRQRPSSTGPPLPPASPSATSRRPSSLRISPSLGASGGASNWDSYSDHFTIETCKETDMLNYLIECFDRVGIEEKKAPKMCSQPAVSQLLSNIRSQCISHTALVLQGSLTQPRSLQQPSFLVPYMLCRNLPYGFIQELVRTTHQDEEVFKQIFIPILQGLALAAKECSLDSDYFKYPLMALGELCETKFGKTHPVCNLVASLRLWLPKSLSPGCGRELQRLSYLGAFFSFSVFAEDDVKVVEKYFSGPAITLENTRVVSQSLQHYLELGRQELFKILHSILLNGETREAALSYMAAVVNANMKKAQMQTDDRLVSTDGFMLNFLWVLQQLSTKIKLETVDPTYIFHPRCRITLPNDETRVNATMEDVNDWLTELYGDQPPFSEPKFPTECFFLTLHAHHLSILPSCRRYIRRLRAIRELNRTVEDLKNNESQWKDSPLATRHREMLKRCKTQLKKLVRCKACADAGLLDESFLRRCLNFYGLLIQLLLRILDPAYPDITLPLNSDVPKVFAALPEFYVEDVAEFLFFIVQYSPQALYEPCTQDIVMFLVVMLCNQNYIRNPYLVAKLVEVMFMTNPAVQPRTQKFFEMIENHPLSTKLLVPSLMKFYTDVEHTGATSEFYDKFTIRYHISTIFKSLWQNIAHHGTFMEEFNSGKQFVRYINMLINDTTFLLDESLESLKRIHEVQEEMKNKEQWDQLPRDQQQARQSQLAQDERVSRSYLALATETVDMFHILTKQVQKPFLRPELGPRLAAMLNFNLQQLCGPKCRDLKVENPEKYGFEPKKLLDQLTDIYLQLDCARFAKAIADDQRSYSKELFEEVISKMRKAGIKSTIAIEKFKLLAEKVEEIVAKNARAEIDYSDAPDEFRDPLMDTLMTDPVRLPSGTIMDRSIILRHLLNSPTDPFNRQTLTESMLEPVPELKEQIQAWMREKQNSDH
# UniProt Q6PHR2: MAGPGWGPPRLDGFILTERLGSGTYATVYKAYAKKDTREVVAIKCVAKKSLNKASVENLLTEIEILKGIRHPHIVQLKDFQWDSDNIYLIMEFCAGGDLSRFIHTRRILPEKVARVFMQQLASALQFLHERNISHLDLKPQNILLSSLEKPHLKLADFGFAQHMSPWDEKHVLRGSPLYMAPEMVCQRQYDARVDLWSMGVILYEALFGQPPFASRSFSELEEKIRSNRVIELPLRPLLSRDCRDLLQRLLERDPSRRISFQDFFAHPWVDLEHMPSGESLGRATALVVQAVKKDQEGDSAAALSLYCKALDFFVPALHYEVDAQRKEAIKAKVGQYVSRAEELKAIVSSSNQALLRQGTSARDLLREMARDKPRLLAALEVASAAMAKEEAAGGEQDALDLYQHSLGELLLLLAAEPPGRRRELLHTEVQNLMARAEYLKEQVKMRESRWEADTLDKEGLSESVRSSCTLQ
# UniProt C9J7I0: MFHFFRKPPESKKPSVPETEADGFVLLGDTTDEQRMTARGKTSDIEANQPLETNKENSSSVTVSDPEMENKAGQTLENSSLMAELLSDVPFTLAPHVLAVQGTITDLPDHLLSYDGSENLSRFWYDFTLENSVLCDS
# UniProt Q9UDW1: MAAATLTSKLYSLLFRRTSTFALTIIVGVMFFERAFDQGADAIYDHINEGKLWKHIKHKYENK
# UniProt Q7Z6J8: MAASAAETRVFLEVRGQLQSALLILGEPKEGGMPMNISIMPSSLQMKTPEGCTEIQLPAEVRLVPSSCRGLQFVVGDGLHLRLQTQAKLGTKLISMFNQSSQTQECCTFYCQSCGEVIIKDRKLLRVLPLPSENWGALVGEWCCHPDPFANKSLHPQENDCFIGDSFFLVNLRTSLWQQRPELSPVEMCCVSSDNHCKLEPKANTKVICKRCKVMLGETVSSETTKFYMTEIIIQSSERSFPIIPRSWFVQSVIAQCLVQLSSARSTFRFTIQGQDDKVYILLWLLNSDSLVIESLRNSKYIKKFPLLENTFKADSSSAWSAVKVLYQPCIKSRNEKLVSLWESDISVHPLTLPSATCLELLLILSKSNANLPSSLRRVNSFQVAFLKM
# UniProt Q92890: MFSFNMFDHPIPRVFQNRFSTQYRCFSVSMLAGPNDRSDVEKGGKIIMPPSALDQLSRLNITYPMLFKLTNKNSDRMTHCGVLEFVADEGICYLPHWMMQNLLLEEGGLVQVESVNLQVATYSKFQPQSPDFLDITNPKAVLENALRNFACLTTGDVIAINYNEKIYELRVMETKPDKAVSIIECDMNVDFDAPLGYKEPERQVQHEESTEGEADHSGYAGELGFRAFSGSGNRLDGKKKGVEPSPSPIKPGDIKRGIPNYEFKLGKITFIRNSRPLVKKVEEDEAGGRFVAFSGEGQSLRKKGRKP
# The list shows a part of the results.
# Assays:
# Assay in all cases: log2 fold change, soluble protein after heating vs DMSO (PISA); higher = thermal stabilisation; K562 cells, 10 uM, 30 min; active = over 0.2 and 3.5 SD of the protein, either way, in both replicates (recomputed)
# [1] = compound: CC[C@@H]1C(=O)N(C)c2cnc(Nc3ccc(C(=O)NC4CCN(C)CC4)cc3OC)nc2N1C1CCCC1
# Procedure, shortened: (§1)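 K562 cells at 2×10^6 cells/mL were treated for 30 min with 10 μM compound, and aliquots were heated for 3 min over 48°C-58°C before pooling. Extraction used PBS with 0.5% NP-40 at 4°C, and soluble protein was the supernatant after 21,000xg for 90 min, measured by TMTpro 16plex LC-MS/MS with channel sums equalised. Thermal stability values, relative to control samples and from duplicates, are log2 fold changes.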
# volasertib = compound: CC[C@@H]1C(=O)N(C)c2cnc(Nc3ccc(C(=O)N[C@H]4CC[C@H](N5CCN(CC6CC6)CC5)CC4)cc3OC)nc2N1C(C)C [volasertib]
# Procedure, shortened: as §1
# [2] = compound: CC[C@H](C)N1C=C(C2=C(C=C(C=C21)C3=CN=C(C=C3)N4CCNCC4)C(=O)NCC5=C(C=C(NC5=O)C)C)C
# Procedure, shortened: as §1
# epoxomicin = compound: CC[C@H](C)[C@@H](C(=O)N[C@@H]([C@@H](C)O)C(=O)N[C@@H](CC(C)C)C(=O)[C@]1(CO1)C)NC(=O)[C@H]([C@@H](C)CC)N(C)C(=O)C [epoxomicin]
# Procedure, shortened: as §1
# [3] = compound: CCn1cc(-c2ccnc3[nH]c(-c4cccc(CN(C)C)c4)cc23)c(-c2ccc(NC(=O)N(C)C)cc2)n1
# Procedure, shortened: as §1
# [4] = compound: CN(C)CC(=O)Nc1ccc2[nH]c(=O)c3ccccc3c2c1
# Procedure, shortened: as §1
# [5] = compound: CN1C2=C(C3=C1C(=O)N(N=C3)CC4=CC(=CC=C4)N)SC(=C2)S(=O)C
# Procedure, shortened: as §1
# [6] = compound: CN1CCC(CNc2ccc3ncc(-c4cccc(OC(F)(F)F)c4)n3n2)CC1
# Procedure, shortened: as §1
# saracatinib = compound: CN1CCN(CCOc2cc(OC3CCOCC3)c3c(Nc4c(Cl)ccc5c4OCO5)ncnc3c2)CC1 [saracatinib]
# Procedure, shortened: as §1
# sotrastaurin = compound: CN1CCN(c2nc(C3=C(c4c[nH]c5ccccc45)C(=O)NC3=O)c3ccccc3n2)CC1 [sotrastaurin]
# Procedure, shortened: as §1
# Tubastatin A = compound: CN1CCc2c(c3ccccc3n2Cc2ccc(C(=O)NO)cc2)C1 [Tubastatin A]
# Procedure, shortened: as §1
# [7] = compound: CNC(=O)C1=CC=CC=C1NC2=NC(=NC=C2Cl)NC3=C(C=C(C=C3)N4CCOCC4)OC
# Procedure, shortened: as §1
# defactinib = compound: CNC(=O)c1ccc(Nc2ncc(C(F)(F)F)c(NCc3nccnc3N(C)S(C)(=O)=O)n2)cc1 [defactinib]
# Procedure, shortened: as §1
# rucaparib = compound: CNCc1ccc(-c2[nH]c3cc(F)cc4c3c2CCNC4=O)cc1 [rucaparib]
# Procedure, shortened: as §1
# [8] = compound: CNc1nc(-c2ccc3c(N)n[nH]c3c2)cc(N2C[C@@H](C(=O)NC3CCCCC3)CC[C@H]2C)n1
# Procedure, shortened: as §1
# encorafenib = compound: COC(=O)N[C@@H](C)CNc1nccc(-c2cn(C(C)C)nc2-c2cc(Cl)cc(NS(C)(=O)=O)c2F)n1 [encorafenib]
# Procedure, shortened: as §1
# [9] = compound: COC(=O)[C@H](CCSC)NC(=O)C1=C(C=C(C=C1)NC[C@H](CS)N)C2=CC=CC=C2
# Procedure, shortened: as §1
# [10] = compound: CCn1c(C(=O)N(C2CC2)C2CC2)cc2c3c(ncn3C)c(Nc3cc(C)n(C)n3)nc21
# Procedure, shortened: as §1
# rosiglitazone = compound: CN(CCOC1=CC=C(C=C1)C[C@H]2C(=O)NC(=O)S2)C3=CC=CC=N3 (racemic) [rosiglitazone]
# Procedure, shortened: as §1
# alvocidib = compound: CN1CC[C@H](c2c(O)cc(O)c3c(=O)cc(-c4ccccc4Cl)oc23)[C@H](O)C1 [alvocidib]
# Procedure, shortened: as §1
Target,log2 fold change [1],log2 fold change (volasertib),log2 fold change [2],log2 fold change (epoxomicin),log2 fold change [3],log2 fold change [4],log2 fold change [5],log2 fold change [6],log2 fold change (saracatinib),log2 fold change (sotrastaurin),log2 fold change (Tubastatin A),log2 fold change [7],log2 fold change (defactinib),log2 fold change (rucaparib),log2 fold change [8],log2 fold change (encorafenib),log2 fold change [9],log2 fold change [10],log2 fold change (rosiglitazone),log2 fold change (alvocidib)
UCHL5 (UniProt Q9Y5K5),inactive: -0.113,active: -0.295,inactive: 0.074,inactive: 0.116,inactive: -0.028,inactive: 0.04,inactive: -0.003,inactive: -0.099,inactive: -0.044,inactive: -0.057,inactive: 0.148,inactive: 0.013,inactive: -0.107,inactive: 0.074,inactive: -0.001,inactive: 0.091,inactive: -0.028,,,
UFM1 (UniProt P61960),inactive: 0.025,inactive: -0.13,inactive: -0.092,inactive: 0.023,,inactive: 0.043,inactive: -0.062,,inactive: 0.028,inactive: -0.004,inactive: 0.097,inactive: 0.026,inactive: -0.066,inactive: -0.119,inactive: -0.013,inactive: 0.029,inactive: -0.031,,,
UNK (UniProt Q9C0B0),inactive: -0.058,inactive: -0.091,inactive: 0.066,,inactive: -0.007,inactive: -0.103,inactive: -0.059,inactive: 0.069,inactive: -0.007,inactive: -0.097,inactive: -0.009,inactive: -0.004,inactive: -0.057,inactive: 0.119,inactive: -0.08,inactive: -0.07,inactive: 0.127,inactive: -0.017,inactive: -0.024,inactive: -0.078
USP48 isoform 8 (UniProt Q86UV5),active: -0.55,active: -0.84,inactive: 0.144,inactive: -0.058,inactive: -0.047,inactive: 0.195,inactive: -0.013,inactive: -0.459,inactive: -0.037,inactive: -0.403,inactive: 0.197,inactive: 0.016,inactive: -0.462,inactive: -0.085,inactive: -0.044,inactive: 0.065,inactive: -0.081,,,
"VARS2, A0A0G2JL52",inactive: -0.024,inactive: 0.001,inactive: 0.08,inactive: 0.011,inactive: -0.013,inactive: 0.007,inactive: -0.016,inactive: -0.126,inactive: 0.007,inactive: -0.019,inactive: -0.026,inactive: -0.019,inactive: -0.005,inactive: 0.02,inactive: 0.012,inactive: -0.004,inactive: -0.041,,,
UBR2 (UniProt Q8IWV8),inactive: 0.046,inactive: -0.104,inactive: -0.004,inactive: 0.196,inactive: -0.039,inactive: -0.076,inactive: 0.114,inactive: -0.063,inactive: -0.065,inactive: -0.024,inactive: 0.098,inactive: -0.014,inactive: -0.052,inactive: -0.012,inactive: 0.145,inactive: 0.143,inactive: 0.085,,,
UCHL5 isoform 3 (UniProt Q9Y5K5),inactive: -0.008,active: -0.617,inactive: 0.126,inactive: 0.293,,inactive: 0.074,,,,inactive: -0.292,inactive: -0.035,inactive: 0.136,inactive: 0.03,inactive: -0.08,,inactive: 0.241,inactive: -0.254,,,
UBE4A isoform 2 (UniProt Q14139),inactive: -0.126,active: -0.584,inactive: 0.123,inactive: 0.087,inactive: -0.055,inactive: 0.053,inactive: 0.159,active: -0.436,inactive: -0.024,inactive: -0.148,inactive: -0.009,inactive: 0.006,inactive: -0.017,inactive: 0.021,inactive: -0.079,inactive: 0.03,inactive: -0.078,,,
UBE4B isoform 4 (UniProt O95155),inactive: -0.046,active: -0.229,inactive: 0.024,inactive: 0.023,inactive: -0.005,inactive: 0.01,inactive: -0.003,inactive: -0.079,inactive: 0.018,inactive: -0.038,inactive: 0.016,inactive: 0.02,inactive: -0.071,inactive: -0.077,inactive: -0.058,inactive: 0.01,inactive: -0.001,,,
UFM1 isoform 2 (UniProt P61960),inactive: 0.116,inactive: 0.012,inactive: 0.069,inactive: 0.029,inactive: -0.001,inactive: 0.114,inactive: 0.004,inactive: -0.005,inactive: 0,inactive: 0.044,inactive: -0.158,inactive: 0.022,inactive: -0.065,inactive: -0.114,inactive: -0.024,inactive: 0.01,inactive: -0.082,,,
USF3 (UniProt Q68DE3),inactive: 0.071,inactive: -0.01,,inactive: -0.19,,inactive: -0.143,,,,inactive: 0.015,,,inactive: -0.074,inactive: -0.027,,inactive: -0.063,inactive: 0.051,,inactive: 0.007,
USO1 isoform 2 (UniProt O60763),inactive: -0.108,active: -0.254,inactive: 0.025,inactive: 0.043,inactive: -0.018,inactive: 0.015,inactive: -0.059,inactive: -0.111,inactive: 0.076,inactive: -0.028,inactive: -0.026,inactive: 0.029,inactive: -0.034,inactive: -0.019,inactive: 0.03,inactive: 0.022,inactive: -0.003,,,
ULK3 isoform 4 (UniProt Q6PHR2),inactive: -0.402,inactive: -0.261,,inactive: 0.153,inactive: -0.021,,,inactive: -0.615,,inactive: -0.166,,,,inactive: -0.053,,inactive: 0.067,,,inactive: 0.1,
UMAD1 (UniProt C9J7I0),inactive: -0.017,inactive: 0.089,inactive: -0.036,,inactive: 0.126,,inactive: -0.01,inactive: 0.166,inactive: -0.056,,inactive: -0.055,inactive: -0.019,,inactive: -0.004,inactive: -0.203,inactive: -0.033,,inactive: 0.014,inactive: -0.041,inactive: -0.095
UQCR10 (UniProt Q9UDW1),inactive: 0.093,inactive: -0.102,inactive: -0.031,inactive: 0.005,inactive: -0.112,inactive: 0.008,inactive: -0.016,inactive: 0.177,inactive: 0.001,inactive: 0.121,inactive: -0.103,inactive: 0.018,inactive: 0.039,inactive: -0.063,inactive: 0.018,inactive: 0.001,inactive: -0.031,,,
UBE3D (UniProt Q7Z6J8),inactive: -0.033,inactive: -0.053,inactive: 0.012,inactive: 0.031,inactive: -0.023,inactive: -0.004,inactive: -0.051,inactive: -0.016,inactive: 0.027,inactive: -0.007,inactive: -0.043,inactive: -0.058,inactive: -0.003,inactive: 0.161,inactive: -0.064,inactive: 0.005,inactive: -0.108,,,
UBIAD1 (UniProt Q9Y5Z9),inactive: -0.008,inactive: -0.065,inactive: -0.014,,inactive: 0.027,inactive: -0.011,inactive: -0.094,inactive: -0.041,inactive: 0.003,inactive: 0.208,inactive: -0.078,inactive: 0.054,inactive: 0.002,active: 0.473,inactive: -0.053,inactive: -0.035,inactive: -0.039,,,
UFD1 isoform 1 (UniProt Q92890),inactive: -0.009,inactive: 0.021,inactive: 0.008,inactive: 0.063,inactive: 0.063,inactive: 0.003,inactive: -0.045,inactive: -0.015,inactive: 0.008,inactive: 0.005,inactive: 0.027,inactive: -0.022,inactive: -0.013,inactive: -0.02,inactive: -0.054,inactive: -0.004,inactive: 0,,,

# Given as tab-separated lines: part of the list above
Target	log2 fold change [1]	log2 fold change (volasertib)	log2 fold change [2]	log2 fold change (epoxomicin)	log2 fold change [3]	log2 fold change [4]	log2 fold change [5]	log2 fold change [6]	log2 fold change (saracatinib)	log2 fold change (sotrastaurin)	log2 fold change (Tubastatin A)	log2 fold change [7]	log2 fold change (defactinib)	log2 fold change (rucaparib)	log2 fold change [8]	log2 fold change (encorafenib)	log2 fold change [9]	log2 fold change [10]	log2 fold change (rosiglitazone)	log2 fold change (alvocidib)
UFM1 (UniProt P61960)	inactive: 0.025	inactive: -0.13	inactive: -0.092	inactive: 0.023		inactive: 0.043	inactive: -0.062		inactive: 0.028	inactive: -0.004	inactive: 0.097	inactive: 0.026	inactive: -0.066	inactive: -0.119	inactive: -0.013	inactive: 0.029	inactive: -0.031			
UNK (UniProt Q9C0B0)	inactive: -0.058	inactive: -0.091	inactive: 0.066		inactive: -0.007	inactive: -0.103	inactive: -0.059	inactive: 0.069	inactive: -0.007	inactive: -0.097	inactive: -0.009	inactive: -0.004	inactive: -0.057	inactive: 0.119	inactive: -0.08	inactive: -0.07	inactive: 0.127	inactive: -0.017	inactive: -0.024	inactive: -0.078
